Data as given in PubChem BioAssay AID686938 (Drosophila RNAi Screening Center, 2013)
In all, the deposit lists about 23,000 reagents; below is a random part of those that have a named target and a result. In the full data, 75 (0.33%) are marked active. 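Raw plate signals without normalisation; calls rest on plate z-scores that were not deposited; ratio present for only 364 wells.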 Not stated in the record: the dose of the treatment.

Purpose: 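Looking for CRAC channel components and the factors controlling them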 (primary screen)
Cells: Drosophila S2R+ cells
Reagents: long dsRNA against Drosophila genes, about 0.25 µg dsRNA per well, roughly 10,000 cells
Duration: 5 days of knock-down before the calcium assay
Conditions: thapsigargin (SERCA pump blocker) to empty calcium stores; entry signal taken 4 min after adding it
Measurement: 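Duplicate raw fluo-4 intensities per well from a plate reader, at rest and four minutes after thapsigargin emptied calcium stores; entry-to-rest ratio filled for only some wells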
Direction: calcium entry signal: higher = stronger calcium signal after store depletion; resting calcium signal: higher = higher resting calcium signal
Units: calcium entry signal in fluorescence units; resting calcium signal in fluorescence units
Call rule: 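Hit if the duplicate-averaged plate z-score for entry over resting signal is under −3; wells with weak total dye signal (Fmax z < −2) or more than 5 off-targets removed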
Calls: active = strongly reduced calcium entry; inactive = no strong reduction

The opening 2 entries, ahead of the listing:
jdp [DRSC16975] → calcium entry signal, replicate 1 = 3.18e7; calcium entry signal, replicate 2 = 4.77e7; resting calcium signal, replicate 1 = 1.53e7; resting calcium signal, replicate 2 = 2.21e7; activity call = inactive
Ntl [DRSC03003] → calcium entry signal, replicate 1 = 4.94e7; calcium entry signal, replicate 2 = 3.24e7; resting calcium signal, replicate 1 = 2.55e7; resting calcium signal, replicate 2 = 1.71e7; activity call = inactive

The list itself, from the first entry:
jdp [DRSC16975] → calcium entry signal, replicate 1 = 3.18e7; calcium entry signal, replicate 2 = 4.77e7; resting calcium signal, replicate 1 = 1.53e7; resting calcium signal, replicate 2 = 2.21e7; activity call = inactive
Ntl [DRSC03003] → calcium entry signal, replicate 1 = 4.94e7; calcium entry signal, replicate 2 = 3.24e7; resting calcium signal, replicate 1 = 2.55e7; resting calcium signal, replicate 2 = 1.71e7; activity call = inactive
Ugt304A1 [DRSC15127] → calcium entry signal, replicate 1 = 2.30e7; calcium entry signal, replicate 2 = 2.38e7; resting calcium signal, replicate 1 = 1.23e7; resting calcium signal, replicate 2 = 1.28e7; activity call = inactive
sn [DRSC18834] → calcium entry signal, replicate 1 = 2.81e7; calcium entry signal, replicate 2 = 4.56e7; resting calcium signal, replicate 1 = 1.35e7; resting calcium signal, replicate 2 = 2.17e7; activity call = inactive
Acbp2 [DRSC11141] → calcium entry signal, replicate 1 = 2.09e7; calcium entry signal, replicate 2 = 4.50e7; resting calcium signal, replicate 1 = 1.10e7; resting calcium signal, replicate 2 = 1.95e7; activity call = inactive
CG15111 [DRSC21467] → calcium entry signal, replicate 1 = 2.57e7; calcium entry signal, replicate 2 = 3.06e7; resting calcium signal, replicate 1 = 1.30e7; resting calcium signal, replicate 2 = 1.34e7; activity call = inactive
Tat [DRSC19602] → calcium entry signal, replicate 1 = 2.76e7; calcium entry signal, replicate 2 = 3.43e7; resting calcium signal, replicate 1 = 1.35e7; resting calcium signal, replicate 2 = 1.38e7; activity call = inactive
CG1236 [DRSC12203] → calcium entry signal, replicate 1 = 3.75e7; calcium entry signal, replicate 2 = 4.31e7; resting calcium signal, replicate 1 = 1.66e7; resting calcium signal, replicate 2 = 2.06e7; activity call = inactive
Nrx-IV [DRSC11238] → calcium entry signal, replicate 1 = 5.68e7; calcium entry signal, replicate 2 = 4.11e7; resting calcium signal, replicate 1 = 3.85e7; resting calcium signal, replicate 2 = 1.81e7; activity call = inactive
slp1 [DRSC00835] → calcium entry signal, replicate 1 = 4.77e7; resting calcium signal, replicate 1 = 2.50e7; activity call = inactive
Svip [DRSC08982] → calcium entry signal, replicate 1 = 4.74e7; calcium entry signal, replicate 2 = 4.12e7; resting calcium signal, replicate 1 = 2.78e7; resting calcium signal, replicate 2 = 1.88e7; activity call = inactive
aspr [DRSC20689] → calcium entry signal, replicate 1 = 4.28e7; calcium entry signal, replicate 2 = 5.41e7; resting calcium signal, replicate 1 = 2.13e7; resting calcium signal, replicate 2 = 2.26e7; activity call = inactive
aspr [DRSC20690] → calcium entry signal, replicate 1 = 5.01e7; calcium entry signal, replicate 2 = 4.40e7; resting calcium signal, replicate 1 = 2.50e7; resting calcium signal, replicate 2 = 2.05e7; activity call = inactive
CG18745 [DRSC15382] → calcium entry signal, replicate 1 = 4.03e7; calcium entry signal, replicate 2 = 3.01e7; resting calcium signal, replicate 1 = 1.82e7; resting calcium signal, replicate 2 = 1.44e7; activity call = inactive
